Data source: PubChem BioAssay AID504786 (Drosophila RNAi Screening Center, 2011)
Screen: 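Positive regulators of HIF-driven reporter output in Drosophila cells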 (primary screen). Cell system: Drosophila S2 cells with a stable HIF luciferase reporter. Reagent: long dsRNA against Drosophila genes, about 0.2 µg dsRNA per well of a 384-well plate. Timing: three days of knock-down, then 20 h of DFO before reading. Challenge: desferrioxamine (DFO) at 100 µM, an iron chelator that mimics hypoxia, for 20 h. Read-out: 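Firefly luciferase driven by the mouse ldh-a hypoxia-response element, measured after 20 h of 100 µM DFO; z-scores per plate, higher means more signal lost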. Direction: z-score: higher = stronger loss of HIF reporter signal.
In all, the deposit lists about 21,000 reagents; shown is an unselected part of those that have a named target and a result. 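Primary screen; positive scores mean lost reporter signal, so the sign may be inverted from the usual convention.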 A plus sign joins genes that one reagent is predicted to hit. Further read-outs or replicates are left out here.

Slu7 [DRSC14729]: z-score, replicate 1 = 4.5
Alp2 [DRSC04354]: z-score, replicate 1 = -0.2
CG13558 [DRSC04196]: z-score, replicate 1 = -0.4
zda [DRSC06936]: z-score, replicate 1 = 2.8
Fatp (retired record) [DRSC03054]: z-score, replicate 1 = -0.3
CG15456 [DRSC20527]: z-score, replicate 1 = -0.2
Eip63E [DRSC08658]: z-score, replicate 1 = -0.5
CG13946 [DRSC00364]: z-score, replicate 1 = -0.2
CG9988 [DRSC16587]: z-score, replicate 1 = -0.2
wge [DRSC15246]: z-score, replicate 1 = -0.3
wge [DRSC15672]: z-score, replicate 1 = -0.2
Taf3 [DRSC17170]: z-score, replicate 1 = 0
Mo25 [DRSC11224]: z-score, replicate 1 = 1.8
CG15365 [DRSC18038]: z-score, replicate 1 = 1.4
CG6333 [DRSC10626]: z-score, replicate 1 = -0.2

Reformatted: entries from further up
predicted target	DRSC id	z-score, replicate 1
Eip63E	DRSC08658	-0.5
CG13946	DRSC00364	-0.2
CG9988	DRSC16587	-0.2
wge	DRSC15246	-0.3
wge	DRSC15672	-0.2

The listing continues.
GstE8 [DRSC06678]: z-score, replicate 1 = -0.3
yellow-g [DRSC08575]: z-score, replicate 1 = -0.3
nanos [DRSC17018]: z-score, replicate 1 = -0.3
CG16736 [DRSC15145]: z-score, replicate 1 = -0.3
sncRNA:430e + His2A:CG33859 + His2A:CG33817 + 37 more [DRSC21264]: z-score, replicate 1 = 1.6
CG6479 [DRSC10647]: z-score, replicate 1 = -0.1
Atg4a [DRSC00656]: z-score, replicate 1 = -0.1
S-Lap2 [DRSC10628]: z-score, replicate 1 = -0.3
Rdh [DRSC08063]: z-score, replicate 1 = -0.2
Rdh [DRSC08434]: z-score, replicate 1 = 0.8
atos [DRSC07318]: z-score, replicate 1 = 0.2
TTLL4A [DRSC02528]: z-score, replicate 1 = -0.4
CalpA [DRSC07352]: z-score, replicate 1 = -0.5
CG4781 [DRSC04488]: z-score, replicate 1 = -0.1
zpg [DRSC09702]: z-score, replicate 1 = -0.4
alpha-Man-Ib [DRSC14418]: z-score, replicate 1 = -0.1
CG15701 [DRSC06572]: z-score, replicate 1 = -0.3
CG12209 [DRSC06119]: z-score, replicate 1 = -0.2
Chpf [DRSC19491]: z-score, replicate 1 = -0.2
Chpf [DRSC19893]: z-score, replicate 1 = -0.2
ec [DRSC17285]: z-score, replicate 1 = 0.3
ec [DRSC17286]: z-score, replicate 1 = -0.1
ec [DRSC18658]: z-score, replicate 1 = -0.4
CG9920 [DRSC16578]: z-score, replicate 1 = 0.2
CG13344 [DRSC06378]: z-score, replicate 1 = -0.3
